These are yes or no findings as the source states them, for the method shown. Binding seen in cells or lysates may run through a third protein. Some binding calls cover weakened binding; strength is not graded here. For some of these results: Sequences can lack the tags named with a protein.
Key:
HACE1-Myc = biological target: T1, HACE1-Myc (UniProt Q8IYU2); test: co-IP; HEK-293T cells co-transfected with PKR-Flag and HACE1-Myc (or empty vectors), lysed, immunoprecipitated with anti-MYC or anti-Flag, Western blotting; also with circRNA-CREIT overexpression vector, which increased the PKR-Flag precipitated by HACE1-Myc
T1 sequence: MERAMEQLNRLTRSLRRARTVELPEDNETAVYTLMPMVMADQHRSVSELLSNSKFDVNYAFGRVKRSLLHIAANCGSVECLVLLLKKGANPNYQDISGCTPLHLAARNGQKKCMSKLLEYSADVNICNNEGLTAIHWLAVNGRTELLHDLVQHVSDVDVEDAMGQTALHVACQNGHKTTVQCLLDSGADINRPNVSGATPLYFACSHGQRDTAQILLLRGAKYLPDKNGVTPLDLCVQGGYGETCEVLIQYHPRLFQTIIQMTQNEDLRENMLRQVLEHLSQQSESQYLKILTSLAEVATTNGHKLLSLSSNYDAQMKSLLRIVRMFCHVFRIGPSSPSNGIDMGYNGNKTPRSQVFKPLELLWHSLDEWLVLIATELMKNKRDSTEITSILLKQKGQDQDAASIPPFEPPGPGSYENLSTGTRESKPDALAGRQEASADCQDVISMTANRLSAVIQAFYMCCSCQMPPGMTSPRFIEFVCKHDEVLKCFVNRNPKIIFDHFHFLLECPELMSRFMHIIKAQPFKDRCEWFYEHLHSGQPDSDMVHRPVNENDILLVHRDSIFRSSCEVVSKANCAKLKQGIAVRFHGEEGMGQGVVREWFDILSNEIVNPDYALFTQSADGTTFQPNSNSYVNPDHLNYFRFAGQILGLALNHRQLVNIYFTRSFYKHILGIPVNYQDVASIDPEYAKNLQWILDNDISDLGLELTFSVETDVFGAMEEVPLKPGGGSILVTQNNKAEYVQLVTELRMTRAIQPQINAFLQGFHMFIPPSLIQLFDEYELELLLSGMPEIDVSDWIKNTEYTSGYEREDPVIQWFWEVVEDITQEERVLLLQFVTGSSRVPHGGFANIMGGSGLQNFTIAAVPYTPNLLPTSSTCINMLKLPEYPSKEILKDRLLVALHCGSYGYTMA

Protein sequences, listed by entry. Tags and fused reporters are not part of them.
UniProt P19525: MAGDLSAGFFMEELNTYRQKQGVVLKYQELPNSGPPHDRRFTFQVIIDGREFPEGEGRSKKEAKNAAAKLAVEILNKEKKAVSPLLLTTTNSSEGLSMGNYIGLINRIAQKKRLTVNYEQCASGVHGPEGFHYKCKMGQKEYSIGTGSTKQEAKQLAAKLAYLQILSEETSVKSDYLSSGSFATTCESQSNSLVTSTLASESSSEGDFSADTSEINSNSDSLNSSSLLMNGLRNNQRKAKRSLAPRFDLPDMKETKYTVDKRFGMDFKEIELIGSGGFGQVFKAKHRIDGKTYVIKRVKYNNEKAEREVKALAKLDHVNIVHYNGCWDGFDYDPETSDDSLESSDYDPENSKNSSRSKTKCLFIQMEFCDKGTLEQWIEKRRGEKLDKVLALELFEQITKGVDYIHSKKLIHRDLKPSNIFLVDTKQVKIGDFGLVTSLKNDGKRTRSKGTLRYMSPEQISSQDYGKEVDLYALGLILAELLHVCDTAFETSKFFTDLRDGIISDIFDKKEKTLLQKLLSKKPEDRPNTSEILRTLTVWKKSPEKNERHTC

HACE1-Flag = biological target: T2, HACE1-Flag (UniProt Q8IYU2); test: co-IP; HEK-293T cells transfected with HACE1-Flag or PKR-Flag, lysed, immunoprecipitated with anti-Flag, Western blotting with anti-PKR or anti-HACE1 (endogenous partner)
T2 sequence: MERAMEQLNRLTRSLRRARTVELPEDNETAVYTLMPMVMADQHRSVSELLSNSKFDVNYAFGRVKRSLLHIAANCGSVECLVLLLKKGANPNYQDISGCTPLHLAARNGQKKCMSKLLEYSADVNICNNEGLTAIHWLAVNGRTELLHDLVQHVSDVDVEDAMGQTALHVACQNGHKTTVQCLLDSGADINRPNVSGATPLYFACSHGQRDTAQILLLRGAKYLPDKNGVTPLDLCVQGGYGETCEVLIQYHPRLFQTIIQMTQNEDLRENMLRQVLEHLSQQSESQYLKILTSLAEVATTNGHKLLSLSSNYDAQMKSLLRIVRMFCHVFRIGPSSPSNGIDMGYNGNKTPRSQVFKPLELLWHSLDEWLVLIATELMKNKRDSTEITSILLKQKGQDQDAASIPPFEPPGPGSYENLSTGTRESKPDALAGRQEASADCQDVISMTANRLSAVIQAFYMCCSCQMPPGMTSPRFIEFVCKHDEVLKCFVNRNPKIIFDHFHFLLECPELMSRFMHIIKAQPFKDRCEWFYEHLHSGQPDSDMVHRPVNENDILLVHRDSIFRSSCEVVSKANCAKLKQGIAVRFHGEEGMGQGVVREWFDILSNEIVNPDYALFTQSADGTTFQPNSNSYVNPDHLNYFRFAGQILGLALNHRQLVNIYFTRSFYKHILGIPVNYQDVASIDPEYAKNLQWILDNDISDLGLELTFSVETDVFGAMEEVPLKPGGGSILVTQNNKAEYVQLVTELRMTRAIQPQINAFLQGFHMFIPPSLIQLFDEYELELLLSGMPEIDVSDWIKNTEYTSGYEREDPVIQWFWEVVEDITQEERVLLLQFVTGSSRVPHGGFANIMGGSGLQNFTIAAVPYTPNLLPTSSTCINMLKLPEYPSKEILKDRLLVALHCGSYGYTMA

PKR-Flag [1] = biological target: PKR-Flag (UniProt P19525); test: as above
PKR-Flag [2] = biological target: PKR-Flag (UniProt P19525); test: co-IP; HEK-293T cells co-transfected with PKR-Flag and HACE1-Myc (or empty vectors), lysed, immunoprecipitated with anti-MYC or anti-Flag, Western blotting; also with circRNA-CREIT overexpression vector, which increased the PKR-Flag precipitated by HACE1-Myc

PKR-Flag (from UniProt P19525 1-551) (enzyme)
binding (HACE1-Myc): binds

endogenous PKR (from UniProt P19525 1-551) (enzyme)
binding (HACE1-Flag): binds

B1: endogenous HACE1 (enzyme, UniProt Q8IYU2 1-909)
chain: MERAMEQLNRLTRSLRRARTVELPEDNETAVYTLMPMVMADQHRSVSELLSNSKFDVNYAFGRVKRSLLHIAANCGSVECLVLLLKKGANPNYQDISGCTPLHLAARNGQKKCMSKLLEYSADVNICNNEGLTAIHWLAVNGRTELLHDLVQHVSDVDVEDAMGQTALHVACQNGHKTTVQCLLDSGADINRPNVSGATPLYFACSHGQRDTAQILLLRGAKYLPDKNGVTPLDLCVQGGYGETCEVLIQYHPRLFQTIIQMTQNEDLRENMLRQVLEHLSQQSESQYLKILTSLAEVATTNGHKLLSLSSNYDAQMKSLLRIVRMFCHVFRIGPSSPSNGIDMGYNGNKTPRSQVFKPLELLWHSLDEWLVLIATELMKNKRDSTEITSILLKQKGQDQDAASIPPFEPPGPGSYENLSTGTRESKPDALAGRQEASADCQDVISMTANRLSAVIQAFYMCCSCQMPPGMTSPRFIEFVCKHDEVLKCFVNRNPKIIFDHFHFLLECPELMSRFMHIIKAQPFKDRCEWFYEHLHSGQPDSDMVHRPVNENDILLVHRDSIFRSSCEVVSKANCAKLKQGIAVRFHGEEGMGQGVVREWFDILSNEIVNPDYALFTQSADGTTFQPNSNSYVNPDHLNYFRFAGQILGLALNHRQLVNIYFTRSFYKHILGIPVNYQDVASIDPEYAKNLQWILDNDISDLGLELTFSVETDVFGAMEEVPLKPGGGSILVTQNNKAEYVQLVTELRMTRAIQPQINAFLQGFHMFIPPSLIQLFDEYELELLLSGMPEIDVSDWIKNTEYTSGYEREDPVIQWFWEVVEDITQEERVLLLQFVTGSSRVPHGGFANIMGGSGLQNFTIAAVPYTPNLLPTSSTCINMLKLPEYPSKEILKDRLLVALHCGSYGYTMA
binding (PKR-Flag [1]): binds

B2: HACE1-Myc (enzyme, UniProt Q8IYU2 1-909)
chain: MERAMEQLNRLTRSLRRARTVELPEDNETAVYTLMPMVMADQHRSVSELLSNSKFDVNYAFGRVKRSLLHIAANCGSVECLVLLLKKGANPNYQDISGCTPLHLAARNGQKKCMSKLLEYSADVNICNNEGLTAIHWLAVNGRTELLHDLVQHVSDVDVEDAMGQTALHVACQNGHKTTVQCLLDSGADINRPNVSGATPLYFACSHGQRDTAQILLLRGAKYLPDKNGVTPLDLCVQGGYGETCEVLIQYHPRLFQTIIQMTQNEDLRENMLRQVLEHLSQQSESQYLKILTSLAEVATTNGHKLLSLSSNYDAQMKSLLRIVRMFCHVFRIGPSSPSNGIDMGYNGNKTPRSQVFKPLELLWHSLDEWLVLIATELMKNKRDSTEITSILLKQKGQDQDAASIPPFEPPGPGSYENLSTGTRESKPDALAGRQEASADCQDVISMTANRLSAVIQAFYMCCSCQMPPGMTSPRFIEFVCKHDEVLKCFVNRNPKIIFDHFHFLLECPELMSRFMHIIKAQPFKDRCEWFYEHLHSGQPDSDMVHRPVNENDILLVHRDSIFRSSCEVVSKANCAKLKQGIAVRFHGEEGMGQGVVREWFDILSNEIVNPDYALFTQSADGTTFQPNSNSYVNPDHLNYFRFAGQILGLALNHRQLVNIYFTRSFYKHILGIPVNYQDVASIDPEYAKNLQWILDNDISDLGLELTFSVETDVFGAMEEVPLKPGGGSILVTQNNKAEYVQLVTELRMTRAIQPQINAFLQGFHMFIPPSLIQLFDEYELELLLSGMPEIDVSDWIKNTEYTSGYEREDPVIQWFWEVVEDITQEERVLLLQFVTGSSRVPHGGFANIMGGSGLQNFTIAAVPYTPNLLPTSSTCINMLKLPEYPSKEILKDRLLVALHCGSYGYTMA
binding (PKR-Flag [2]): binds
